Consider four substances from PMC10763561 (RSC Chemical Biology, 2023).

HELM strings list residues between dots; [ac] is acetyl, [am] amide, other brackets name non-standard units.

The data set is described as follows: general procedure: Fmoc solid-phase peptide synthesis; Rink Amide MBHA low-loading resin (0.308 mmol/g); HATU/DIPEA (manual); DIC/oxyma (automated). The conditions noted are these: for final HPLC purity / isolated yield: whole synthesis; for final HPLC purity: analytical HPLC, scale of the general procedure 0.1 or 0.25 mmol; for isolated yield: scale 0.25 mmol; for cyclisation yield: cyclisation step.

With “PEPTIDE1{[ac].T.S.F.A.C.Y.W.N.G.L.S.C.[am]}$$$$V2.0”, the “final HPLC purity” value worked out at 91% and the isolated yield was 14%.

Take “PEPTIDE1{[ac].T.S.F.A.E.Y.W.N.N.L.S.P.[am]}$$$$V2.0”: the “final HPLC purity” value is 96% and the isolated yield was found to be 6%.

On to “PEPTIDE1{[ac].T.S.F.A.C.Y.W.N.G.L.S.C.[am]}|CHEM1{[AzoCl4]}$PEPTIDE1,CHEM1,6:R3-1:R1|PEPTIDE1,CHEM1,13:R3-1:R2$$$V2.0”, for which the cyclisation yield (run 1) was 38% yield and the cyclisation yield (run 2) is recorded as 18-38% yield.

In the case of “PEPTIDE1{[5TAMRA].R.F.M.D.Y.W.E.G.L.[am]}$$$$V2.0”, the “final HPLC purity” value worked out at 95%.
